From PMC8036666, “Biological and Physico-Chemical Characteristics of Arginine-Rich Peptide Gemini Surfactants with Lysine and Cystine Spacers” (International Journal of Molecular Sciences, 2021)
Where a SMILES comes first, the peptide text is derived from it. Bridges are numbered along the chain shown (N, C = ends). Roman numbers before positions name the chains, in order. The star is where a group is joined. Octanoyl = CCCCCCCC(=O)*

Tests used:
[1] = system: Staphylococcus aureus ATCC 33591
Procedure: The Acinetobacter baumannii ATCC BAA-1605, Enterococcus faecium ATCC 700221, Escherichia coli ML-35 ATCC 43827, Klebsiella aerogenes ATCC 13048, Klebsiella pneumoniae ATCC 700603, Pseudomonas aeruginosa ATCC 9027, Staphylococcus aureus ATCC 25923, Staphylococcus aureus ATCC 33591, Candida albicans ATCC 10231, Candida glabrata ATCC 15126, strains were acquired from the American Type Culture Collection (ATCC). All the strains were stored at −80 °C in Roti-Store cryo vials and before the tests were transferred into fresh Mueller–Hinton broth (MHB, Biocorp, Warsaw, […], Steinheim, Germany) for fungi and incubated for 24 h at 37 °C. Then, the cultures were seeded on the Mueller–Hinton agar (BioMaxima, Lublin, Poland) or Sabouraud dextrose agar (SDA, BioMaxima, Lublin, Poland) plates, respectively, and incubated as just mentioned. These agar cultures were used for further microbiological assays. […]
(§1) The MICs were determined by the broth microdilution method according to the Clinical and Laboratory Standard Institute guidelines. […] The experiments were conducted on 96-well microtiter polystyrene plates (Kartell, Noviglio, Italy). The growth was assessed visually after incubation, and the MIC was assumed as the lowest peptide concentration at which a noticeable growth of microorganisms was inhibited. All experiments were conducted in triplicate.

C. albicans ATCC 10231 = system: C. albicans ATCC 10231
Procedure: (§2) The Acinetobacter baumannii ATCC BAA-1605, Enterococcus faecium ATCC 700221, Escherichia coli ML-35 ATCC 43827, Klebsiella aerogenes ATCC 13048, Klebsiella pneumoniae ATCC 700603, Pseudomonas aeruginosa ATCC 9027, Staphylococcus aureus ATCC 25923, Staphylococcus aureus ATCC 33591, Candida albicans ATCC 10231, Candida glabrata ATCC 15126, strains were acquired from the American Type Culture Collection (ATCC). All the strains were stored at −80 °C in Roti-Store cryo vials and before the tests were transferred into fresh Mueller–Hinton broth (MHB, Biocorp, Warsaw, Poland) for bacteria or RPMI-1640 (Sigma-Aldrich, Steinheim, Germany) for fungi and incubated for 24 h at 37 °C. Then, the cultures were seeded on the Mueller–Hinton agar (BioMaxima, Lublin, Poland) or Sabouraud dextrose agar (SDA, BioMaxima, Lublin, Poland) plates, respectively, and incubated as just mentioned. These agar cultures were used for further microbiological assays. Cell densities for all assays were adjusted spectrophotometrically (Multiskan GO Microplate Spectrophotometer, Thermo Fisher Scientific, Vantaa, Finland) at 600 and 530 nm for bacteria and fungi, respectively.
(§3) The MICs were determined by the broth microdilution method according to the Clinical and Laboratory Standard Institute guidelines. For this purpose, initial inoculums of bacteria (5 × 10^5 CFU/mL) in MHB and yeasts (2 × 10^3 CFU/mL) in RPMI-1640 with 2% D-glucose were exposed to the ranging concentration of lipopeptides (0.5–256 μg/mL) and incubated at 37 °C for 18 h and 24 h, respectively. The experiments were conducted on 96-well microtiter polystyrene plates (Kartell, Noviglio, Italy). The growth was assessed visually after incubation, and the MIC was assumed as the lowest peptide concentration at which a noticeable growth of microorganisms was inhibited. All experiments were conducted in triplicate.

C. glabrata ATCC 15126 = system: C. glabrata ATCC 15126
Procedure: as §2, §3

[2] = system: Klebsiella pneumoniae ATCC 700603
Procedure: as §2, §1

[3] = system: Enterococcus faecium ATCC 700221
Procedure: as §2, §1

[4] = system: Pseudomonas aeruginosa ATCC 9027
Procedure: as §2, §1

[5] = system: Acinetobacter baumannii ATCC BAA 1605
Procedure: as §2, §1

[6] = system: Klebsiella aerogenes ATCC 13048
Procedure: as §2, §1

[7] = system: Staphylococcus aureus ATCC 25923
Procedure: as §2, §1

Compound	SI HaCaT (IC50HaCaT/MIC) [1]	SI hRBCs (HC50/MIC) [1]	SI HaCaT (IC50HaCaT/MIC) (C. albicans ATCC 10231)	SI hRBCs (HC50/MIC) (C. albicans ATCC 10231)	SI HaCaT (IC50HaCaT/MIC) (C. glabrata ATCC 15126)	SI hRBCs (HC50/MIC) (C. glabrata ATCC 15126)	SI HaCaT (IC50HaCaT/MIC) [2]	SI hRBCs (HC50/MIC) [2]	SI HaCaT (IC50HaCaT/MIC) [3]	SI hRBCs (HC50/MIC) [3]	SI HaCaT (IC50HaCaT/MIC) [4]	SI hRBCs (HC50/MIC) [4]	SI HaCaT (IC50HaCaT/MIC) [5]	SI hRBCs (HC50/MIC) [5]	SI HaCaT (IC50HaCaT/MIC) [6]	SI hRBCs (HC50/MIC) [6]	SI HaCaT (IC50HaCaT/MIC) [7]	SI hRBCs (HC50/MIC) [7]
CCCCCCC(CCCC)C(=O)N[C@@H](CCCNC(=N)N)C(=O)N[C@@H](CCCNC(=N)N)C(=O)NCCCC[C@H](NC(=O)[C@H](CCCNC(=N)N)NC(=O)[C@H](CCCNC(=N)N)NC(=O)C(CCCC)CCCCCC)C(N)=O (stereo partly drawn) [Compound B7]	157.56	> 512	9.85	> 32	4.92	> 16	2.46	> 8	78.78	> 256	19.70	> 64	2.46	> 8	4.92	> 16	78.78	> 256
CCCCCCCC(=O)N[C@@H](Cc1ccccc1)C(=O)N[C@@H](CCCNC(=N)N)C(=O)N[C@@H](CCCNC(=N)N)C(=O)N[C@@H](CSSC[C@H](NC(=O)[C@H](CCCNC(=N)N)NC(=O)[C@H](CCCNC(=N)N)NC(=O)[C@H](Cc1ccccc1)NC(=O)CCCCCCC)C(N)=O)C(N)=O [Compound C5] (I: Octanoyl-FRRC-NH2 / II: Octanoyl-FRRC-NH2; disulfide I:4-II:4)	73.32	58.53	18.33	14.63	18.33	14.63	4.58	3.66	73.32	58.53	18.33	14.63	4.58	3.66	1.15	0.91	73.32	58.53
CCCCCCC(CCCC)C(=O)N[C@@H](CCCNC(=N)N)C(=O)N[C@@H](CCCNC(=N)N)C(=O)N[C@@H](CSSC[C@H](NC(=O)[C@H](CCCNC(=N)N)NC(=O)[C@H](CCCNC(=N)N)NC(=O)C(CCCC)CCCCCC)C(N)=O)C(N)=O (stereo partly drawn) [Compound C7]	81.99	> 128	10.25	> 16	10.25	> 16	5.12	> 8	81.99	> 128	41.00	> 64	5.12	> 8	10.25	> 16	81.99	> 128
